These are yes or no findings as the source states them, for the method shown. In cells and extracts the contact can be indirect. Here binding means that the protein was enriched with, or labelled near, the bait; the list need not be complete. A no says only that the protein was not detected with the bait.
Target: Flag-TurboID-Plk1 PBD MUTANT (H538A, K540A) (UniProt P53350)
Test: proximity labelling

By UniProt entry, the sequences of proteins in these tests, tags left out.
UniProt Q9NQS7: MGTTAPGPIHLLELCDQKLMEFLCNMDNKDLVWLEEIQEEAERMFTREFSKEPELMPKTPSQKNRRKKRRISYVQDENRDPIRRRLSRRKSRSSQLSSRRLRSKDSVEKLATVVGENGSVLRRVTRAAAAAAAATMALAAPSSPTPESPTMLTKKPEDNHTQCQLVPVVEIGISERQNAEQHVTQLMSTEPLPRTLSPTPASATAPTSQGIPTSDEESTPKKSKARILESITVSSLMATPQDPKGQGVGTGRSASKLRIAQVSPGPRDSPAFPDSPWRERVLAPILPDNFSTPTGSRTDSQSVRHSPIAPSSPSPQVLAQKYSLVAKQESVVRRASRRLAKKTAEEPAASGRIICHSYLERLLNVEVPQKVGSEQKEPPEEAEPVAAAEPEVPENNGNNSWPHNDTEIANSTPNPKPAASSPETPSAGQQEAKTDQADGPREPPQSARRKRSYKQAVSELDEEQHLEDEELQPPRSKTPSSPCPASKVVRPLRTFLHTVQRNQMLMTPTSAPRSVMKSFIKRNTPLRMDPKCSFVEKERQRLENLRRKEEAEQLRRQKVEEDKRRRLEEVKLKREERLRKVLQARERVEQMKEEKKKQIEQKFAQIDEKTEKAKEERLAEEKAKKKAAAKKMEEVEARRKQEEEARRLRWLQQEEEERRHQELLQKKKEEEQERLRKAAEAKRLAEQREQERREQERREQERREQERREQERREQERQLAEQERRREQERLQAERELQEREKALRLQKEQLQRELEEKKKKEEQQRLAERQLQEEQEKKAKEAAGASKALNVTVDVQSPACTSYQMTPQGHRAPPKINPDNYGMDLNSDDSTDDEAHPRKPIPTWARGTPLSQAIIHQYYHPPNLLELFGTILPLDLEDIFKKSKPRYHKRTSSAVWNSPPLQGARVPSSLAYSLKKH

INCENP (from UniProt Q9NQS7 1-918)
binding: no binding

From paper doi:10.1101/2024.07.03.601947
